# Experimental data as given in the supplement of paper PMC6331611.
# ± gives the standard deviation of the averaged measurements. In all, about 1,600 compounds were measured (“normalized intracellular growth (luminescence, IQM-normalized) in RAW264.7 macrophages”: median about 1, lowest 2% from about 0.43 on). The list shows a part of the results.
# System: Salmonella enterica serovar Typhimurium SL1344
# Assay: normalized intracellular growth (luminescence, IQM-normalized) in RAW264.7 macrophages (fraction of plate interquartile mean); higher = more bacterial growth (less inhibition)
# Details: 10 µM
Compound,normalized intracellular growth (time point: T3 (3 h)),normalized intracellular growth (time point: Tfinal (~6 h))
COCC1=C(C(=O)OC(C)OC(=O)OC(C)C)N2C(=O)[C@@H](NC(=O)/C(=N\OC)c3csc(N)n3)[C@H]2SC1 (stereo partly drawn),0.953 ± 0.066,1.06 ± 0.2
CC[C@H]1OC(=O)[C@H](C)[C@@H](O[C@H]2C[C@@](C)(OC)[C@@H](O)[C@H](C)O2)[C@H](C)[C@@H](O[C@@H]2O[C@H](C)C[C@H](N(C)C)[C@H]2O)[C@](C)(OC)C[C@@H](C)C(=O)[C@H](C)[C@@H](O)[C@]1(C)O,1.09 ± 0.015,0.976 ± 0.071
CCCCC1=NC2(CCCC2)C(=O)N1Cc1ccc(-c2ccccc2-c2nnn[nH]2)cc1,1.06 ± 0.014,1.14 ± 0.22
CCCCOC(=O)c1ccc(N)cc1,0.9693 ± 0.0086,0.953 ± 0.012
O=C(Nc1ccc(C(=O)O)c(O)c1)c1ccccc1,1.03 ± 0.11,1.02 ± 0.065
COc1ccc(Cc2cnc(N)nc2N)cc1OC,0.784 ± 0.028,0.17 ± 0.021
N=C(N)NC(=O)c1nc(Cl)c(N)nc1N,0.952 ± 0.011,0.995 ± 0.062
Cc1cc(C2CCCCC2)n(O)c(=O)c1,0.955 ± 0.034,0.916 ± 0.18
S=C1SCN(Cc2ccccc2)CN1Cc1ccccc1,1.01 ± 0.087,0.779 ± 0.14
NS(=O)(=O)c1cc(C(=O)O)c(NCc2ccco2)cc1Cl,0.822 ± 0.066,0.971 ± 0.029
O=C(O)c1cc(=O)c2ccccc2o1,0.979 ± 0.052,0.899 ± 0.18
CCOC(=O)[C@H](CCc1ccccc1)N[C@@H](C)C(=O)N1[C@H](C(=O)O)C[C@@H]2CCC[C@@H]21,0.949 ± 0.12,0.922 ± 0.086
NC(=O)c1ncn([C@@H]2O[C@H](CO)[C@@H](O)[C@H]2O)n1,1.022 ± 0.007,1.25 ± 0.14
CC(C)COCC(CN(Cc1ccccc1)c1ccccc1)N1CCCC1 (stereo not drawn),0.89 ± 0.017,0.898 ± 0.077
C=NC(C(=O)NC1C(=O)N2C1SC(C)(C)C2C(=O)O)c1ccccc1 (stereo not drawn),0.959 ± 0.021,1.04 ± 0.011
CNS(=O)(=O)Cc1ccc2[nH]cc(CCN(C)C)c2c1,1.09 ± 0.054,1.09 ± 0.25
O=C(CCCl)NCc1ccccc1,0.995 ± 0.01,1.01 ± 0.091
CN[C@H](CC(C)C)C(=O)N[C@H]1C(=O)N[C@@H](CC(N)=O)C(=O)N[C@H]2C(=O)N[C@H]3C(=O)N[C@H](C(=O)N[C@H](C(=O)O)c4cc(O)cc(O)c4-c4cc3ccc4O)[C@H](O)c3ccc(c(Cl)c3)Oc3cc2cc(c3O[C@@H]2O[C@H](CO)[C@@H](O)[C@H](O)[C@H]2O[C@H]2C[C@](C)(N)[C@H](O)[C@H](C)O2)Oc2ccc(cc2Cl)[C@H]1O,0.84 ± 0.079,0.897 ± 0.026
NS(=O)(=O)c1cc2c(cc1Cl)N=CNS2(=O)=O,1.03 ± 0.05,1.2 ± 0.073
Clc1ccc(COC(Cn2ccnc2)c2ccc(Cl)cc2Cl)c(Cl)c1 (stereo not drawn),1.04 ± 0.03,1.06 ± 0.072
Cc1cc(=O)n(-c2ccccc2)n1C,1.004 ± 0.0089,1 ± 0.023
CO[C@H]1O[C@@H]2O[C@@]3(C)CC[C@H]4[C@H](C)CC[C@@H]([C@H]1C)[C@@]24OO3,0.65 ± 0.034,0.747 ± 0.045

# Among those listed so far, 2 contain an NH in an aromatic ring:
Compound,normalized intracellular growth (time point: T3 (3 h)),normalized intracellular growth (time point: Tfinal (~6 h))
CCCCC1=NC2(CCCC2)C(=O)N1Cc1ccc(-c2ccccc2-c2nnn[nH]2)cc1,1.06 ± 0.014,1.14 ± 0.22
CNS(=O)(=O)Cc1ccc2[nH]cc(CCN(C)C)c2c1,1.09 ± 0.054,1.09 ± 0.25

# (listing goes on)

Compound,normalized intracellular growth (time point: T3 (3 h)),normalized intracellular growth (time point: Tfinal (~6 h))
NC12CC3CC(CC(C3)C1)C2,0.974 ± 0.046,0.891 ± 0.052
CC1CCc2c(N3CCC(O)CC3)c(F)cc3c(=O)c(C(=O)O)cn1c23 (stereo not drawn),0.894 ± 0.051,0.0538 ± 0.029
Nc1ncnc(Nc2ccc(Cl)cc2)n1,1.1 ± 0.074,0.945 ± 0.42
CN1CCN(C2=Nc3cc(Cl)ccc3Nc3ccccc32)CC1,0.885 ± 0.036,1.01 ± 0.2
CCCCCCCCCCCCCCCC(=O)NCCO,1.01 ± 0.023,1.03 ± 0.05
CN1CCc2cccc3c2[C@H]1Cc1ccc(O)c(O)c1-3,1.03 ± 0.022,0.988 ± 0.059
CCC(Cc1c(I)cc(I)c(N)c1I)C(=O)O (stereo not drawn),0.932 ± 0.028,1.14 ± 0.18
CCC(NC(C)C)C(O)c1ccc(O)c(O)c1 (stereo not drawn),1 ± 0.077,0.903 ± 0.25
C[C@]12CC[C@@H]3c4ccc(O)cc4CC[C@H]3[C@@H]1CC[C@@H]2OC(=O)CCC1CCCC1,1.02 ± 0.018,1.3 ± 0.038
C[C@@H]1[C@H](O)[C@@H](C)/C=C/C=C/C=C/C=C/C=C/C=C/C=C/[C@H](O[C@@H]2O[C@H](C)[C@@H](O)[C@H](N)[C@@H]2O)C[C@@H]2O[C@](O)(C[C@@H](O)C[C@@H](O)[C@H](O)CC[C@@H](O)C[C@@H](O)CC(=O)O[C@H]1C)C[C@H](O)[C@H]2C(=O)O,1.007 ± 0.006,0.958 ± 0.044
CO[C@@]1(NC(=O)CSCC#N)C(=O)N2C(C(=O)O)=C(CSc3nnnn3C)CS[C@@H]21,1.02 ± 0.046,0.808 ± 0.15
CCOC(=O)C(C)(C)Oc1ccc(Cl)cc1,0.957 ± 0.034,0.724 ± 0.43
CC(=O)N(O)CCCCCNC(=O)CCC(=O)N(O)CCCCCNC(=O)CCC(=O)N(O)CCCCCN,1.01 ± 0.027,0.988 ± 0.037
O=C1Cc2cc(CCN3CCN(c4nsc5ccccc45)CC3)c(Cl)cc2N1,0.927 ± 0.043,1.19 ± 0.14
CC(C)/N=c1\cc2n(-c3ccc(Cl)cc3)c3ccccc3nc-2cc1Nc1ccc(Cl)cc1,1.05 ± 0.063,1.54 ± 0.12
CN1CC(=O)NC1=N,1.03 ± 0.02,1.1 ± 0.1
CC(C)(C(=O)c1cccnc1)c1cccnc1,1.46 ± 0.13,0.858 ± 0.15
CCC(=O)c1ccc(O)cc1,0.925 ± 0.049,1 ± 0.03
Oc1ccc(Cl)c2cccnc12,0.939 ± 0.09,0.895 ± 0.11
Nc1c(Br)cc(Br)cc1CN[C@H]1CC[C@H](O)CC1,0.985 ± 0.049,0.934 ± 0.087
Cn1ccnc1S,1.08 ± 0.063,0.892 ± 0.067
CC(C)(Sc1cc(C(C)(C)C)c(O)c(C(C)(C)C)c1)Sc1cc(C(C)(C)C)c(O)c(C(C)(C)C)c1,0.961 ± 0.093,1.18 ± 0.11
